Amino acid sequences for entries named in this document (tags omitted). A change or cut given only in a name is not applied to a line headed by its entry.
UniProt P06870: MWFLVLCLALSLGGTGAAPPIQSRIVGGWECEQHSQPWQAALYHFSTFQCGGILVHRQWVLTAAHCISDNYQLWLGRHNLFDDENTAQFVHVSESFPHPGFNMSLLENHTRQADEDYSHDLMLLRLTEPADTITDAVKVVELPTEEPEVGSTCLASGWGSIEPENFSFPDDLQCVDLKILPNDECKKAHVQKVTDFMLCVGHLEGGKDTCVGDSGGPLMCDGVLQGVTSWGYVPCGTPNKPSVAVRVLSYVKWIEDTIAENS

In article PMC7356578:

Target: KLK1-99Lm (KLK1 with nine residues of its 99 loop deleted) (human) (UniProt P06870)
Assay: SDS-stable covalent serpin-protease complex on reducing SDS-PAGE; 2 µg rKAL mixed with 0.5-1 µg KLK1 (2-3 min), 5 µg KLK1-99Lm (20 min) or 0.5 µg KLK1-70Lm (2 min) at room temperature, no heparin; Coomassie stain; both purified

B1: Recombinant human kallistatin (rKAL), wild type (protein, UniProt P29622 45-427)
chain: GSPSLKIAPANADFAFRFYYLIASETPGKNIFFSPLSISAAYAMLSLGACSHSRSQILEGLGFNLTELSESDVHRGFQHLLHTLNLPGHGLETRVGSALFLSHNLKFLAKFLNDTMAVYEAKLFHTNFYDTVGTIQLINDHVKKETRGKIVDLVSELKKDVLMVLVNYIYFKALWEKPFISSRTTPKDFYVDENTTVRVPMMLQDQEHHWYLHDRYLPCSVLRMDYKGDATVFFILPNQGKMREIEEVLTPEMLMRWNNLLRKRNFYKKLELHLPKFSISGSYVLDQILPRLGFTDLFSKWADLSGITKQQKLEASKSFHKATLDVDEAGTEAAAATSFAIKFFSAQTNRHILRFNRPFLVVIFSTSTQSVLFLGKVVDPTKP
  binding: binds

These are yes or no findings as the source states them, for the method shown. Binding can be weak; no strength is given.
